{"sequences": {"note": "Sequences of proteins named here, by UniProt entry; tags and fusion partners are left off. A change or cut given only in a name is not applied to a line headed by its entry.", "UniProt Q46807": "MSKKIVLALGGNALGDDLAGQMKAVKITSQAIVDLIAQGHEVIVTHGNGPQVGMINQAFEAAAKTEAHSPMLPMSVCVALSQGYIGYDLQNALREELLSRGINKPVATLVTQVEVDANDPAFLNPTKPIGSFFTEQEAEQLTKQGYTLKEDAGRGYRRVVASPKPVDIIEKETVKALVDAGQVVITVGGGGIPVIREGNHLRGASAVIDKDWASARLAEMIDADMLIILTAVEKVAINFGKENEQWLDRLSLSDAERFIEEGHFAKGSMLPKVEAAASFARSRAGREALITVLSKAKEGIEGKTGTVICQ", "UniProt Q47150": "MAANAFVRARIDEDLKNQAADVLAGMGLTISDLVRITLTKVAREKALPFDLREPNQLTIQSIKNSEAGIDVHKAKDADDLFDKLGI", "UniProt Q46908": "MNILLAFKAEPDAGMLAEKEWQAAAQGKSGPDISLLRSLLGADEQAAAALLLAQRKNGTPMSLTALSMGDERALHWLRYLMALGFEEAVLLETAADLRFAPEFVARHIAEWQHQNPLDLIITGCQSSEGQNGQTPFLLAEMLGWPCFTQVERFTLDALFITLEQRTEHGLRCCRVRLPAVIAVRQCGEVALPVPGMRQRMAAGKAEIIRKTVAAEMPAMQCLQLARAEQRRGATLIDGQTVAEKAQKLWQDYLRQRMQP", "UniProt Q46851": "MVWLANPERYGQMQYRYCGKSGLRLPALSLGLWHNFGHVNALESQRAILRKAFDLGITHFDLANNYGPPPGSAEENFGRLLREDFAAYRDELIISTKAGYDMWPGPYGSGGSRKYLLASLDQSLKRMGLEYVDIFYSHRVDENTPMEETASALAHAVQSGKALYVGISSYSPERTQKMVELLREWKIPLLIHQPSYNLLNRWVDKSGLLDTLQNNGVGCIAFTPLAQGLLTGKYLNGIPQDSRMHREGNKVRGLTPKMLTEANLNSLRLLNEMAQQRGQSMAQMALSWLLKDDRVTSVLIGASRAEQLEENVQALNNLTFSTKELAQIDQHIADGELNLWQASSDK", "UniProt Q06065": "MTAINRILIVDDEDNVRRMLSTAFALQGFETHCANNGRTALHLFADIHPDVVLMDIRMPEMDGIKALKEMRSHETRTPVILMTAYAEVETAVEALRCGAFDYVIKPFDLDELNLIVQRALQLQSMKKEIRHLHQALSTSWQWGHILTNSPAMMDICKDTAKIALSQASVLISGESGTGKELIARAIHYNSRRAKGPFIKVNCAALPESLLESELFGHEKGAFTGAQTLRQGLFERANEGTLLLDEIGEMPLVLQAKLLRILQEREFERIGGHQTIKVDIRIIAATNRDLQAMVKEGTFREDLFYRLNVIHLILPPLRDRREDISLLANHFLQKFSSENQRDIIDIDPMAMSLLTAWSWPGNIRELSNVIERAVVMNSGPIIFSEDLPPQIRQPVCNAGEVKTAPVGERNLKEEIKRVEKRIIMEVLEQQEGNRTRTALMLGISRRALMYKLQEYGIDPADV", "UniProt Q47688": "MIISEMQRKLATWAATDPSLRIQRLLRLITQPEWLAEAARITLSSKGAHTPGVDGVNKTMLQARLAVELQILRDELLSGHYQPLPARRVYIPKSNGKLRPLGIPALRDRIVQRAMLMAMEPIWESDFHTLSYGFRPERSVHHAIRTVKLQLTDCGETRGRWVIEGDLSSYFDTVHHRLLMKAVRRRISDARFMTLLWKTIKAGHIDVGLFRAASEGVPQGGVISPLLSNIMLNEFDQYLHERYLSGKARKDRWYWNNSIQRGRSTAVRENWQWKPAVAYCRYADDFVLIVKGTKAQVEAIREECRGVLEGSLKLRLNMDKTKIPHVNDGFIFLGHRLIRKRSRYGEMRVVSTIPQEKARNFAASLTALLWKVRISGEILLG", "UniProt Q46810": "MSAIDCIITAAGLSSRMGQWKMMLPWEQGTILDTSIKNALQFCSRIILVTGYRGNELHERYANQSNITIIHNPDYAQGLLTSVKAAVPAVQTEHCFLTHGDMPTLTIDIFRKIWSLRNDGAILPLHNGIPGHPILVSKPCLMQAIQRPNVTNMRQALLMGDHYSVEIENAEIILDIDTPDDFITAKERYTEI", "UniProt P77737": "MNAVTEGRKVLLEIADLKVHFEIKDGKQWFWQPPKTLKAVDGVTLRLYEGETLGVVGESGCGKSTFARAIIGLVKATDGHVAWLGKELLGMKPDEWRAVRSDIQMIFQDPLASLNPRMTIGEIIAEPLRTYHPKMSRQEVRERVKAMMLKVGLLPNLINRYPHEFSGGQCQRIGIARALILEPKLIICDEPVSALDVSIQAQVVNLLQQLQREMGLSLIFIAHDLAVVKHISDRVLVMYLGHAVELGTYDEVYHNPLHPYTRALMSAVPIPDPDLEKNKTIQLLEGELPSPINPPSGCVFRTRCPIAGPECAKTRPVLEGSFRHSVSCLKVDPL", "UniProt Q46927": "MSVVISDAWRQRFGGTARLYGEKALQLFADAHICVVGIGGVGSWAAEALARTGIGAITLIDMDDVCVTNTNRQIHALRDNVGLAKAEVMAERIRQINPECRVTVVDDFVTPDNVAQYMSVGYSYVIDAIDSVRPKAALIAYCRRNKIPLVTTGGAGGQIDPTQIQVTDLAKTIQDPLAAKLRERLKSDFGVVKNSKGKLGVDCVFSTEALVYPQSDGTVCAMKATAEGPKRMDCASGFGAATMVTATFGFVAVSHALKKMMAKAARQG", "UniProt Q46814": "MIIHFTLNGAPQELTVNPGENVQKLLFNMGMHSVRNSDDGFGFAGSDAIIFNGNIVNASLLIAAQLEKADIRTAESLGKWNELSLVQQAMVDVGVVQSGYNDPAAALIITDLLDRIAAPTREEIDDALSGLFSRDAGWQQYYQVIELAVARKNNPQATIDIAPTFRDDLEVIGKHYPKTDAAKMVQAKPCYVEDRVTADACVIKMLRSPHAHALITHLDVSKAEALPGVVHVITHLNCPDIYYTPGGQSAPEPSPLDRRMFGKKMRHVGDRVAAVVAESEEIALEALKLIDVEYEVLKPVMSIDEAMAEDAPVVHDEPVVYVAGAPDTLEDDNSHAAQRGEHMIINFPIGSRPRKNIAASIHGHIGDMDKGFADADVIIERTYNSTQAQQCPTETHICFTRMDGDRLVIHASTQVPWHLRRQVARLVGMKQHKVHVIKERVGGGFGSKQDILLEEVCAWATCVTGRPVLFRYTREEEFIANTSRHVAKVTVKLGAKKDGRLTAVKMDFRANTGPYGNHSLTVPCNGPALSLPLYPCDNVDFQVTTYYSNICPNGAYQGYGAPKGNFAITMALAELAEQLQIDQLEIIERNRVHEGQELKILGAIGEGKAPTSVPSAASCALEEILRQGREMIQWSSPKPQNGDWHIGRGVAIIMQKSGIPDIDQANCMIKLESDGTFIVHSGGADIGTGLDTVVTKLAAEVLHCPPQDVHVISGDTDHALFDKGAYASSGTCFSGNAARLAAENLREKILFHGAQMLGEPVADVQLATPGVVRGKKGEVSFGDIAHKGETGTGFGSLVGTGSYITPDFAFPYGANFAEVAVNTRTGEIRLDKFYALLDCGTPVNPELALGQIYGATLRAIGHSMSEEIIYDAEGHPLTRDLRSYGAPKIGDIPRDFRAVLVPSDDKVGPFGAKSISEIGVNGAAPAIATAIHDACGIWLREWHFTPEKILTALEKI", "UniProt Q46889": "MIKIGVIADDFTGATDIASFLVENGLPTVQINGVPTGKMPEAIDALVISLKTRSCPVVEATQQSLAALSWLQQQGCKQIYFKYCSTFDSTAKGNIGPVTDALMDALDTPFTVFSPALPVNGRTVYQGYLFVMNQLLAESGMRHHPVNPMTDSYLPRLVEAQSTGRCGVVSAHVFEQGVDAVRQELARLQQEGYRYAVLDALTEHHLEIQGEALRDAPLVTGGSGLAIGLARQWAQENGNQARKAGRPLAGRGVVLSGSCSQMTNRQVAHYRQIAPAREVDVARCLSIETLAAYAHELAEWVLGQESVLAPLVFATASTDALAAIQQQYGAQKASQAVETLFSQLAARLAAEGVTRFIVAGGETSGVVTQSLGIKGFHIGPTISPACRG", "UniProt V9HVX0": "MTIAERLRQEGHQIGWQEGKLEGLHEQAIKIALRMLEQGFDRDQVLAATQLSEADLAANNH", "UniProt Q46857": "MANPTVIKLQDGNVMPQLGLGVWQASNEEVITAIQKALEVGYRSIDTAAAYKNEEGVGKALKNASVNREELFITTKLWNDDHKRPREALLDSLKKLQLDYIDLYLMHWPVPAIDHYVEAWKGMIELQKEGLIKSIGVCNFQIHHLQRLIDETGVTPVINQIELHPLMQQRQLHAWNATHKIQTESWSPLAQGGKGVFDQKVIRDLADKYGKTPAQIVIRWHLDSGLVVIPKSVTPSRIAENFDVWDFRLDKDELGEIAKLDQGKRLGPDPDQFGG", "UniProt Q47536": "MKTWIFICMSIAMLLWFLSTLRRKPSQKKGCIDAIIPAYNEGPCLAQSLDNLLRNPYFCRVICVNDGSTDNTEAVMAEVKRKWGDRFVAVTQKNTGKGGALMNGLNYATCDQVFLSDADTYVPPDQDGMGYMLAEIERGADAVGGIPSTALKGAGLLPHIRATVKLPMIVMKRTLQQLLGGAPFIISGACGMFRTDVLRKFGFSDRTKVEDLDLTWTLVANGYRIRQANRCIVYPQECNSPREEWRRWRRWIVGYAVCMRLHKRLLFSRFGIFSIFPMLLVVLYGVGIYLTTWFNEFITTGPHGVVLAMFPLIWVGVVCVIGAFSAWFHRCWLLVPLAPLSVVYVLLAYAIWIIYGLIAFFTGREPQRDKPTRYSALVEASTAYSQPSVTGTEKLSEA", "UniProt Q46802": "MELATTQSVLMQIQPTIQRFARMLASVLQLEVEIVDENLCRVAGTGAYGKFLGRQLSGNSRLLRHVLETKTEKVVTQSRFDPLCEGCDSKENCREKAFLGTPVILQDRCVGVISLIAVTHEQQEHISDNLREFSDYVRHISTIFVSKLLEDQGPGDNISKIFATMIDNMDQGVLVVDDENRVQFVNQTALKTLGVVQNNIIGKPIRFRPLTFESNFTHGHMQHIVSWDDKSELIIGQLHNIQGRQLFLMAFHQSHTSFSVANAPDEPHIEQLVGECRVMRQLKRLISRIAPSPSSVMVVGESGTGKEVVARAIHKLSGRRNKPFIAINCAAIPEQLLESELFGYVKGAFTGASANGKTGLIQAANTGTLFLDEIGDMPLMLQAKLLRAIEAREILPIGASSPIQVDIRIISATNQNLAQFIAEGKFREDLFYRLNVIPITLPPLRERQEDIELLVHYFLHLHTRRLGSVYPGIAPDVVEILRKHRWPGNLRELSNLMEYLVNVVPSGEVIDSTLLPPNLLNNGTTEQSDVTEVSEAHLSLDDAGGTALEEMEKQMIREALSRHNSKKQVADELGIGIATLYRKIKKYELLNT", "UniProt Q46899": "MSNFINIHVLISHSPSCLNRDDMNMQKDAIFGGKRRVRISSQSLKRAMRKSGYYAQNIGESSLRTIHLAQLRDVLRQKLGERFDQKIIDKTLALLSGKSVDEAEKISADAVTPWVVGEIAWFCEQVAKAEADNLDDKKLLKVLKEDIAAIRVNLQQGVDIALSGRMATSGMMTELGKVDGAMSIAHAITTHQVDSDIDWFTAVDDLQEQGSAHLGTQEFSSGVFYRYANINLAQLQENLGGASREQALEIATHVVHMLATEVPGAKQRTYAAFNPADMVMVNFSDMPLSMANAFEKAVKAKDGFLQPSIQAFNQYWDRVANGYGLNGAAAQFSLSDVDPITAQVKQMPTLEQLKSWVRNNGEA", "UniProt P77690": "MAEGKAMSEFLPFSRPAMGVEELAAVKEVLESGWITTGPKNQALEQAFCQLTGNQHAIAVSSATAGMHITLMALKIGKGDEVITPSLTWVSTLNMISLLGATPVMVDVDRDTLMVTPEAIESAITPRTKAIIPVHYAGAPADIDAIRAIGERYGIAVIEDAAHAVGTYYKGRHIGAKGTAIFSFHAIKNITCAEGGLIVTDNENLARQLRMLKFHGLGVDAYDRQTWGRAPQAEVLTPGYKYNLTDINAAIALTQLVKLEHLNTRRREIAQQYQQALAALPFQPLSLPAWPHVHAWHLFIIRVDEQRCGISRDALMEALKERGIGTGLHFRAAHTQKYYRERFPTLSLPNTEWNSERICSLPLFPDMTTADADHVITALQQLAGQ", "UniProt P77713": "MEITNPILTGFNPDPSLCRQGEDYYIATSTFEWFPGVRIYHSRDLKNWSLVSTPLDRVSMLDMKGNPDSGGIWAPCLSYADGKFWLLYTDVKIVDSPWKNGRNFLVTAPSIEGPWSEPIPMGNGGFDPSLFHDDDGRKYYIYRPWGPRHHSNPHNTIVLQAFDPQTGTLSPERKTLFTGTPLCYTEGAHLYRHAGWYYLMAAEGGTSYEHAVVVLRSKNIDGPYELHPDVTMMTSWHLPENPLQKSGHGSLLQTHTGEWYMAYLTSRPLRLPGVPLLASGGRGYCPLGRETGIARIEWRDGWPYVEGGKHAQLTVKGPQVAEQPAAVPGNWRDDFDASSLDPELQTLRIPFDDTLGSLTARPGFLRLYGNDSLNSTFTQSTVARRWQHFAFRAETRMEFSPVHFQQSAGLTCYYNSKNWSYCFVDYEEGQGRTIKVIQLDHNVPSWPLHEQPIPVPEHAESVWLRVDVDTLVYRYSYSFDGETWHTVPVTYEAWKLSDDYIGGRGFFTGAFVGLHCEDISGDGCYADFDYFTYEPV"}, "source": "the supplement of paper PMC12819154", "about": "“High-throughput peptide-centric local stability assay extends protein–ligand identification to membrane proteins, tissues and bacteria” (Nature Structural & Molecular Biology, 2025)", "note": "The other results are listed elsewhere or left out. Most entries show no effect beyond the scatter of the controls.", "data": [{"compound": "CC1(C)S[C@@H]2[C@H](NC(=O)[C@H](N)c3ccccc3)C(=O)N2[C@H]1C(=O)O [ampicillin]", "experiment": "log2 fold change of tryptic peptide abundance, ligand vs vehicle (limited proteolysis) (log2 ratio); higher = more trypsin-susceptible (destabilized)", "conditions": "ligand concentration: 10 uM; sample: E. coli crude lysate", "values": [{"target": "UniProt Q46925 (peptide sequence: VAQLLNAPDDKTIVWTR, peptide start residue: 72)", "log2 fold change": 0.112}, {"target": "UniProt Q46807 (peptide sequence: EALITVLSK, peptide start residue: 287)", "log2 fold change": 0.366}, {"target": "UniProt P77726 (peptide sequence: EVLIAEEEHSAYVK, peptide start residue: 423)", "log2 fold change": 0.255}, {"target": "UniProt Q47150 (peptide sequence: EKALPFDLR, peptide start residue: 44)", "log2 fold change": -0.131}, {"target": "UniProt P77695 (peptide sequence: AEADISEYITK, peptide start residue: 10)", "log2 fold change": 0.148}, {"target": "UniProt Q46908 (peptide sequence: RGATLIDGQTVAEK, peptide start residue: 231)", "log2 fold change": 0.228}, {"target": "UniProt Q47129 (peptide sequence: YTGVLDTHFAK, peptide start residue: 32)", "log2 fold change": -0.227}, {"target": "UniProt Q46863 (peptide sequence: TAIALSSEWKK, peptide start residue: 392)", "log2 fold change": 0.594}, {"target": "UniProt P77791 (peptide sequence: MIAGELYR, peptide start residue: 8)", "log2 fold change": -0.166}, {"target": "UniProt P77802 (peptide sequence: QLLLQLVVKR, peptide start residue: 138)", "log2 fold change": 0.0761}, {"target": "UniProt Q46868 (peptide sequence: KQPDPETLPPTL, peptide start residue: 85)", "log2 fold change": -0.129}, {"target": "UniProt Q46851 (peptide sequence: KYLLASLDQSLKR, peptide start residue: 114)", "log2 fold change": 0.376}, {"target": "UniProt Q06065 (peptide sequence: RIIMEVLEQQEGNR, peptide start residue: 420)", "log2 fold change": -0.384}, {"target": "UniProt Q47688 (peptide sequence: LATWAATDPSLR, peptide start residue: 10)", "log2 fold change": 0.136}, {"target": "UniProt Q46810 (peptide sequence: NALQFCSR, peptide start residue: 38)", "log2 fold change": -0.0394}, {"target": "UniProt P77737 (peptide sequence: QWFWQPPK, peptide start residue: 28)", "log2 fold change": -0.346}, {"target": "UniProt Q46927 (peptide sequence: IRQINPECR, peptide start residue: 93)", "log2 fold change": -0.451}, {"target": "UniProt Q46814 (peptide sequence: GEHMIINFPIGSRPR, peptide start residue: 340)", "log2 fold change": 0.401}, {"target": "UniProt Q46845 (peptide sequence: TNGPLNEQLHER, peptide start residue: 261)", "log2 fold change": 0.2}, {"target": "UniProt Q46836 (peptide sequence: SHCPHCQQTIR, peptide start residue: 64)", "log2 fold change": -0.423}, {"target": "UniProt Q46889 (peptide sequence: HHPVNPMTDSYLPR, peptide start residue: 143)", "log2 fold change": -0.391}, {"target": "UniProt V9HVX0 (peptide sequence: LEGLHEQAIK, peptide start residue: 21)", "log2 fold change": -1.1}, {"target": "UniProt Q46857 (peptide sequence: QLHAWNATHK, peptide start residue: 171)", "log2 fold change": -0.21}, {"target": "UniProt Q46799 (peptide sequence: DLAMDAFYHPER, peptide start residue: 575)", "log2 fold change": -0.33}, {"target": "UniProt Q47536 (peptide sequence: WGDRFVAVTQK, peptide start residue: 83)", "log2 fold change": -0.0493}, {"target": "UniProt Q46802 (peptide sequence: HISTIFVSK, peptide start residue: 139)", "log2 fold change": -0.141}, {"target": "UniProt Q46899 (peptide sequence: TIHLAQLR, peptide start residue: 65)", "log2 fold change": -0.0682}, {"target": "UniProt P77690 (peptide sequence: APQAEVLTPGYK, peptide start residue: 230)", "log2 fold change": 0.0894}, {"target": "UniProt Q46808 (peptide sequence: ADGSIVGTIGGGMVERK, peptide start residue: 40)", "log2 fold change": -0.286}, {"target": "UniProt P77713 (peptide sequence: PLRLPGVPLLASGGR, peptide start residue: 268)", "log2 fold change": 0.608}, {"target": "UniProt Q46919 (peptide sequence: MHDLLDNK, peptide start residue: 59)", "log2 fold change": 0.459}]}]}
